No constants are given. Whether binding was seen depends on the method and setting. For some of these results: Binding seen in cells or lysates may run through a third protein. Some binding calls cover weakened binding; strength is not graded here. For some of these results: Where a sequence is shown, tags or fusion partners need not be part of it.
What was measured:
[1] = target: T1, HA-tagged ARR12 (Arabidopsis) (UniProt P62598); assay: co-immunoprecipitation with anti-GFP agarose from transfected Arabidopsis protoplasts, anti-HA blot
T1 sequence (looked up): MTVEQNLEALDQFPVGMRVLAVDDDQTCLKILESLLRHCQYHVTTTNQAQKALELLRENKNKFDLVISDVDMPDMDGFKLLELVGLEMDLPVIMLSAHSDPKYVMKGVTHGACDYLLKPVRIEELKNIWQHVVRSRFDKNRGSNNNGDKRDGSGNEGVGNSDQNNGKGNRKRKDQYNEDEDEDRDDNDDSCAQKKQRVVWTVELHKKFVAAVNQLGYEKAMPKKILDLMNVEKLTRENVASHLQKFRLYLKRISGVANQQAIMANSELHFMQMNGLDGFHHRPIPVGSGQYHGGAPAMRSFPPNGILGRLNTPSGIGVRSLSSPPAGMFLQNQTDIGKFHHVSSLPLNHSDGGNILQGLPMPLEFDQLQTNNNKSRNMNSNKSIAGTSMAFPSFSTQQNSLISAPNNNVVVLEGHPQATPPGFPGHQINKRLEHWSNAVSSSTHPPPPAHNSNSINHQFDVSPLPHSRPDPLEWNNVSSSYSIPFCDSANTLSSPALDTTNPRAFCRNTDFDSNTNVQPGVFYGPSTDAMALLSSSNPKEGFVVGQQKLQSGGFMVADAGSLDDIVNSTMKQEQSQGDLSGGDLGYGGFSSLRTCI

The chains behind the UniProt entries cited, without tags or fusion partners.
UniProt Q39255: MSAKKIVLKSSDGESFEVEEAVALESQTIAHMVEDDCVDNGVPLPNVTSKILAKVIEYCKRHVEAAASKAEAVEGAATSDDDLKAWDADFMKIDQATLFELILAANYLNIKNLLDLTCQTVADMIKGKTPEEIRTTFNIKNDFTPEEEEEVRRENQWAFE

[2] = target: T2, ARR1 (1-154) (Arabidopsis) (UniProt Q940D0); assay: BiFC with ARR fragments; the weaker of the two interactions
T2 sequence (looked up): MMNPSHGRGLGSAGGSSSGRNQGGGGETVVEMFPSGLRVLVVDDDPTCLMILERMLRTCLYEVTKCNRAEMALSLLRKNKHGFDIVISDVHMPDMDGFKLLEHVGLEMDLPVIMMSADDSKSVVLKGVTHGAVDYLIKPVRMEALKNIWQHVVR

[3] = target: ASK1, an Arabidopsis Skp1 protein of the SCF complex (Arabidopsis) (UniProt Q39255); assay: BiFC (YFP^N/YFP^C fusions) in Arabidopsis protoplasts

Binder	binding [3]	also measured
GFP-tagged KMD1 protein (protein, not shown: large carriers; small tags and cut ends) MELIPNLPDDVARECLLRSSYQQFPVIASVCRAWNREVSLSQFLHQRKASRHSQELLILSQARVDPAGSGKIIATPEYRISVLESGSGLWTELPPIPGQTKGLPLFCRLVSVGSDLIVLGGLDPITWQAHDSVFVFSFLTSKWRVGATMPGVRRSFFGCASDSDRTVLVAGGHNEEKCALTSAMVYDVSEDKWTFLPDMARERDECKAVFHAGRFHVIGGYATEEQGQFSKTAESFDVSTWEWGPLTEDFLDDTGDTVSPPTCVAGGDLYACWGGDVMMFLNDKWQKVGQIPADVYNVTYVAVRPGMLIVIGNGKALAGYGEATVGYICDLSSSRWVKLETHGGHVQAGCFLEV		binding [1]: binds
KISS ME DEADLY 1 (KMD1) (protein, Arabidopsis, UniProt Q9M8L2 1-354, looked up) MELIPNLPDDVARECLLRSSYQQFPVIASVCRAWNREVSLSQFLHQRKASRHSQELLILSQARVDPAGSGKIIATPEYRISVLESGSGLWTELPPIPGQTKGLPLFCRLVSVGSDLIVLGGLDPITWQAHDSVFVFSFLTSKWRVGATMPGVRRSFFGCASDSDRTVLVAGGHNEEKCALTSAMVYDVSEDKWTFLPDMARERDECKAVFHAGRFHVIGGYATEEQGQFSKTAESFDVSTWEWGPLTEDFLDDTGDTVSPPTCVAGGDLYACWGGDVMMFLNDKWQKVGQIPADVYNVTYVAVRPGMLIVIGNGKALAGYGEATVGYICDLSSSRWVKLETHGGHVQAGCFLEV		binding [2]: binds
ELIPNLPDDVARECLLRSSYQQFPVIASVCRAWNREVSLSQFLHQR [KMD1F-box]	binds	
ELIPDLPETVAYECLLRSSYKQFPLMASVCKLWQREISLSDFFRHR [KMD2F-box]	binds	

Reference: patent US20160289698A1
